From paper PMC5264588, “ER residency of the ceramide phosphoethanolamine synthase SMSr relies on homotypic oligomerization mediated by its SAM domain” (Scientific Reports, 2017) come the findings set out here.

First the molecules themselves.
B5: V5/His6-tagged SMSr (enzyme, human, UniProt Q96LT4 1-415, looked up)
chain: MAGPNQLCIRRWTTKHVAVWLKDEGFFEYVDILCNKHRLDGITLLTLTEYDLRSPPLEIKVLGDIKRLMLSVRKLQKIHIDVLEEMGYNSDSPMGSMTPFISALQSTDWLCNGELSHDCDGPITDLNSDQYQYMNGKNKHSVRRLDPEYWKTILSCIYVFIVFGFTSFIMVIVHERVPDMQTYPPLPDIFLDSVPRIPWAFAMTEVCGMILCYIWLLVLLLHKHRSILLRRLCSLMGTVFLLRCFTMFVTSLSVPGQHLQCTGKIYGSVWEKLHRAFAIWSGFGMTLTGVHTCGDYMFSGHTVVLTMLNFFVTEYTPRSWNFLHTLSWVLNLFGIFFILAAHEHYSIDVFIAFYITTRLFLYYHTLANTRAYQQSRRARIWFPMFSFFECNVNGTVPNEYCWPFSKPAIMKRLIG
notes: SMSr (SAMD8), ceramide phosphoethanolamine synthase, human, UniProt Q96LT4; the cDNA was PCR amplified and cloned with a C-terminal V5/His6 tag; also called SMSr-V5; SAMD8; source: HeLa, transfected (pcDNA3.1/V5-His TOPO), in detergent extract; not shown: V5, C-terminal, kept; His6, C-terminal, kept

These are yes or no findings as the source states them, for the method shown. For some assays here: In cells and extracts the contact can be indirect. Some entries that bind do so weakly or less than the wild type. Tags and fused reporters may be left off the sequences shown.

One assay concerns the target scGFP-DGKδ-SAM (human) (UniProt Q16760). In words: native gel or EMSA; bacterial lysates with scGFP fusions of SAM domains run on a native gel (27.3 mM Tris-HCl, 192 mM glycine, 4 °C), in-gel GFP fluorescence; lysis buffer with 1 M NaCl, 1 mM TCEP. Background: Mobility shift assays separate free from complexed probe on a gel.
A further assay concerns the target scGFP-SMSr-SAM (human) (UniProt Q96LT4). The description is as above.
Assay [1] concerns the target T1, V5/His6-tagged SMSr^L62E/G63D/K66E (SMSr^OD) (human) (UniProt Q96LT4).
T1 sequence: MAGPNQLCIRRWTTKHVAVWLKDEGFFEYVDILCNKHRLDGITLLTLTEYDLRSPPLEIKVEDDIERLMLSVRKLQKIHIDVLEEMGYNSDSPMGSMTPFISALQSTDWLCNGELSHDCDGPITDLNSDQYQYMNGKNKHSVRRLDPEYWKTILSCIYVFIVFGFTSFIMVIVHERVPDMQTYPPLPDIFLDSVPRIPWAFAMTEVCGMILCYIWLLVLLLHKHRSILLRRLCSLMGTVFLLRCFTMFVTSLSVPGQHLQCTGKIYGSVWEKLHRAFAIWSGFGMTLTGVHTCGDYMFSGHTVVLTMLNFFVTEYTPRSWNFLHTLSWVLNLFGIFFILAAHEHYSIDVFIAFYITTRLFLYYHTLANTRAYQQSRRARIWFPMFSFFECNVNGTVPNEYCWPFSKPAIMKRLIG
In words: co-IP; HeLa (wild-type or SMSr-/-) cells co-transfected with V5/His6- and HA-tagged constructs, solubilized with detergent with 10 mM NEM; anti-V5 immunoprecipitation, immunoblot with anti-V5 and anti-HA. For orientation: A western blot detects proteins with antibodies after separation by electrophoresis.

Assay [2] concerns the target V5-tagged SMSr^K66E (human) (UniProt Q96LT4). In words: SDS-resistant oligomers on SDS-PAGE of affinity-purified protein; HeLa cells transfected with one V5(/His6)-tagged construct; anti-V5 immunoprecipitates or Ni-NTA eluates, non-reducing SDS-PAGE, anti-V5 immunoblot; no cross-linker; oligomers mostly lost with 10 mM NEM in lysis or 100 mM DTT.
The target in the assay “V5/His6-tagged SMSr” is B5. Put plainly: SDS-resistant oligomers on SDS-PAGE of affinity-purified protein; HeLa cells with V5/His6-tagged SMSr treated with 50 μM curcumin (1-6 h), lysed with detergent and 10 mM NEM; anti-V5 immunoprecipitates or Ni-NTA eluates, reducing SDS-PAGE, anti-V5 immunoblot; also with zVAD-fmk, CERT over-expression, myriocin, fumonisin B1, HPA-12 or BAPTA-AM.

Assay [3] concerns the target V5-tagged SMSr^L62E (human) (UniProt Q96LT4). Put plainly: SDS-resistant oligomers on SDS-PAGE of affinity-purified protein; HeLa cells transfected with one V5(/His6)-tagged construct; anti-V5 immunoprecipitates or Ni-NTA eluates, non-reducing SDS-PAGE, anti-V5 immunoblot; no cross-linker; oligomers mostly lost with 10 mM NEM in lysis or 100 mM DTT.
The target in assay [4] is V5-tagged SMSr^G63D (human) (UniProt Q96LT4). Described as above.
Assay [5] concerns the target T2, V5/His6-tagged SMSr^D348E (human) (UniProt Q96LT4).
T2 sequence: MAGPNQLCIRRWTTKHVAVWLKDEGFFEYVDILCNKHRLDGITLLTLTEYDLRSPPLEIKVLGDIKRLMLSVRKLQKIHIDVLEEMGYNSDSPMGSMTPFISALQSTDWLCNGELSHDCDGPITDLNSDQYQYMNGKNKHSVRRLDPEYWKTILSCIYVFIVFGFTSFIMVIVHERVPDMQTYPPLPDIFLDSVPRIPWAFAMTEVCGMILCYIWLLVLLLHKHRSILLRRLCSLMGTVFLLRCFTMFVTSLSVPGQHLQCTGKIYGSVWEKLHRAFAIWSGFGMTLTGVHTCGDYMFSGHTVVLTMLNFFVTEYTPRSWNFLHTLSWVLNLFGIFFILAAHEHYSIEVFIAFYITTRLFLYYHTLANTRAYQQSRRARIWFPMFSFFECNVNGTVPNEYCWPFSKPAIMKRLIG
In words: co-IP; HeLa (wild-type or SMSr-/-) cells co-transfected with V5/His6- and HA-tagged constructs, solubilized with detergent with 10 mM NEM; anti-V5 immunoprecipitation, immunoblot with anti-V5 and anti-HA.

B1: scGFP-DGKδ-SAM (domain or fragment, UniProt Q16760 1145-1208)
chain: WGTEEVAAWLEHLSLCEYKDIFTRHDIRGSELLHLERRDLKDLGVTKVGHMKRILCGIKELSRS
With B1, the binding entry with scGFP-DGKδ-SAM (human) was “binds”.

B2: scGFP-SMSr-SAM (domain or fragment, UniProt Q96LT4 12-78)
chain: WTTKHVAVWLKDEGFFEYVDILCNKHRLDGITLLTLTEYDLRSPPLEIKVLGDIKRLMLSVRKLQKI
For the molecule B2, the binding result with scGFP-SMSr-SAM (human) is “binds”.

B3: HA-tagged SMSr^L62E/G63D/K66E (SMSr^OD) (enzyme, human, UniProt Q96LT4 1-415, looked up)
chain: MAGPNQLCIRRWTTKHVAVWLKDEGFFEYVDILCNKHRLDGITLLTLTEYDLRSPPLEIKVEDDIERLMLSVRKLQKIHIDVLEEMGYNSDSPMGSMTPFISALQSTDWLCNGELSHDCDGPITDLNSDQYQYMNGKNKHSVRRLDPEYWKTILSCIYVFIVFGFTSFIMVIVHERVPDMQTYPPLPDIFLDSVPRIPWAFAMTEVCGMILCYIWLLVLLLHKHRSILLRRLCSLMGTVFLLRCFTMFVTSLSVPGQHLQCTGKIYGSVWEKLHRAFAIWSGFGMTLTGVHTCGDYMFSGHTVVLTMLNFFVTEYTPRSWNFLHTLSWVLNLFGIFFILAAHEHYSIDVFIAFYITTRLFLYYHTLANTRAYQQSRRARIWFPMFSFFECNVNGTVPNEYCWPFSKPAIMKRLIG
notes: SMSr (SAMD8), human, UniProt Q96LT4, with L62E, G63D and K66E; also called oligomerization-defective triple mutant; source: HeLa (wild-type or SMSr-/-), transfected, in detergent extract; not shown: HA, C-terminal, kept
Turning to B3, the binding entry in assay [1] was “binds”.

B4: V5-tagged SMSr^K66E (enzyme, UniProt Q96LT4 1-415)
chain: MAGPNQLCIRRWTTKHVAVWLKDEGFFEYVDILCNKHRLDGITLLTLTEYDLRSPPLEIKVLGDIERLMLSVRKLQKIHIDVLEEMGYNSDSPMGSMTPFISALQSTDWLCNGELSHDCDGPITDLNSDQYQYMNGKNKHSVRRLDPEYWKTILSCIYVFIVFGFTSFIMVIVHERVPDMQTYPPLPDIFLDSVPRIPWAFAMTEVCGMILCYIWLLVLLLHKHRSILLRRLCSLMGTVFLLRCFTMFVTSLSVPGQHLQCTGKIYGSVWEKLHRAFAIWSGFGMTLTGVHTCGDYMFSGHTVVLTMLNFFVTEYTPRSWNFLHTLSWVLNLFGIFFILAAHEHYSIDVFIAFYITTRLFLYYHTLANTRAYQQSRRARIWFPMFSFFECNVNGTVPNEYCWPFSKPAIMKRLIG
For B4, the binding entry in assay [2] is reported as “binds”. With B5, the binding result in the assay with V5/His6-tagged SMSr is recorded as “binds”.

B6: V5-tagged SMSr^L62E (enzyme, UniProt Q96LT4 1-415)
chain: MAGPNQLCIRRWTTKHVAVWLKDEGFFEYVDILCNKHRLDGITLLTLTEYDLRSPPLEIKVEGDIKRLMLSVRKLQKIHIDVLEEMGYNSDSPMGSMTPFISALQSTDWLCNGELSHDCDGPITDLNSDQYQYMNGKNKHSVRRLDPEYWKTILSCIYVFIVFGFTSFIMVIVHERVPDMQTYPPLPDIFLDSVPRIPWAFAMTEVCGMILCYIWLLVLLLHKHRSILLRRLCSLMGTVFLLRCFTMFVTSLSVPGQHLQCTGKIYGSVWEKLHRAFAIWSGFGMTLTGVHTCGDYMFSGHTVVLTMLNFFVTEYTPRSWNFLHTLSWVLNLFGIFFILAAHEHYSIDVFIAFYITTRLFLYYHTLANTRAYQQSRRARIWFPMFSFFECNVNGTVPNEYCWPFSKPAIMKRLIG
Consider B6, for which the binding entry in assay [3] was “binds”.

B7: V5-tagged SMSr^G63D (enzyme, UniProt Q96LT4 1-415)
chain: MAGPNQLCIRRWTTKHVAVWLKDEGFFEYVDILCNKHRLDGITLLTLTEYDLRSPPLEIKVLDDIKRLMLSVRKLQKIHIDVLEEMGYNSDSPMGSMTPFISALQSTDWLCNGELSHDCDGPITDLNSDQYQYMNGKNKHSVRRLDPEYWKTILSCIYVFIVFGFTSFIMVIVHERVPDMQTYPPLPDIFLDSVPRIPWAFAMTEVCGMILCYIWLLVLLLHKHRSILLRRLCSLMGTVFLLRCFTMFVTSLSVPGQHLQCTGKIYGSVWEKLHRAFAIWSGFGMTLTGVHTCGDYMFSGHTVVLTMLNFFVTEYTPRSWNFLHTLSWVLNLFGIFFILAAHEHYSIDVFIAFYITTRLFLYYHTLANTRAYQQSRRARIWFPMFSFFECNVNGTVPNEYCWPFSKPAIMKRLIG
In the case of B7, the binding result in assay [4] was “binds”.

B8: HA-tagged SMSr^D348E (enzyme, human, UniProt Q96LT4 1-415, looked up)
chain: MAGPNQLCIRRWTTKHVAVWLKDEGFFEYVDILCNKHRLDGITLLTLTEYDLRSPPLEIKVLGDIKRLMLSVRKLQKIHIDVLEEMGYNSDSPMGSMTPFISALQSTDWLCNGELSHDCDGPITDLNSDQYQYMNGKNKHSVRRLDPEYWKTILSCIYVFIVFGFTSFIMVIVHERVPDMQTYPPLPDIFLDSVPRIPWAFAMTEVCGMILCYIWLLVLLLHKHRSILLRRLCSLMGTVFLLRCFTMFVTSLSVPGQHLQCTGKIYGSVWEKLHRAFAIWSGFGMTLTGVHTCGDYMFSGHTVVLTMLNFFVTEYTPRSWNFLHTLSWVLNLFGIFFILAAHEHYSIEVFIAFYITTRLFLYYHTLANTRAYQQSRRARIWFPMFSFFECNVNGTVPNEYCWPFSKPAIMKRLIG
notes: SMSr (SAMD8), human, UniProt Q96LT4, with D348E; also called enzyme-dead SMSr; source: SMSr-/- HeLa, transfected, in detergent extract; not shown: HA, C-terminal, kept
Take B8: in assay [5], the binding entry is listed as “binds”.
